According to patent US6455590B1, “Deprenyl compounds for treatment of glaucoma” (University of Toronto Innovations.Foundation, priority 1995, dated 2002):

System: retinal ganglion cells projecting to the superior colliculus (RGC^SCs) / RGCL neuronal cell bodies
Test: Optic nerve crush in rats: counts of Nissl-stained and Fluoro-Gold-labelled cell bodies in the retinal ganglion cell layer
Assay type: in vivo
From the text: All animals were handled according to the Declaration of Helsinki and The Guiding Principles in the Care and Use of Animals. […] The injections were delivered from a 10 microliter Hamilton syringe over a period of fifteen minutes.
It has been reported that 40-50% of the neurons whose cell bodies are located in the retinal ganglion cell layer (RGCL) of the rat send an axon to the optic nerve and are RGCs (Cowey et al. (1979) Exp. Brain Res. 35, 457-64; Perry V. H. (1981) Neuroscience 6, 931-44: and Linden et al. (1989) Brain Res. 272, 145-149). […]
One group of eight rats received (−)-deprenyl (1 mg/kg) by intraperitoneal (IP) injection every two days for a fourteen day period beginning at the time of optic nerve crush. […] Serial 10 mm sections were cut through the upper brain stem and diencephalon of the animals and viewed under fluorescence microscopy to determine the location and extent of the stereotactic injections of FG. […] In order to detect even low level FG fluorescence in neuronal cell bodies or processes, the FG labelled brain sections and the retinal sections were examined with the aid of a Hamarmatsu intensification camera that allowed the fluorescent images to be digitized using a Matrox frame grabber controlled by image analysis software (Universal Metamorph). […]

For `C#CCN(C)C(C)Cc1ccccc1` (single isomer, unassigned; (-)) [(−)-deprenyl, N,α-dimethyl-N-2-propynylphenethylamine], the “RGC^SCs as percentage of the mean value of the distribution for the uncrushed saline retinas” value (uncrushed optic nerve, FIG. 3) was 87.0+/−15.2% and the “slope of FG labelled versus Nissl stained cell body counts” value (uncrushed retinas, FIG. 2) was 0.379+/−0.021.
